Reference: the supplement of paper PMC12889115
The other results are listed elsewhere or left out. These are raw signals, not scaled to a control.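 Primary screen: polymyxin B was added at a level permeabilizing Salmonella outer membranes while sparing inner membranes. DMSO wells, both with and without polymyxin B, established maximum growth. Plate-to-plate variation meant each plate was ranked on its own, and the lowest-OD600 compounds were selected as hits.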

Tested on: Salmonella enterica serovar Typhimurium SL1344
Test: bacterial growth OD600 after 18 h with compound and polymyxin B; higher = more bacterial growth (less inhibition)
Conditions: 50 µM, Mueller-Hinton broth

Compound	bacterial growth OD600 (polymyxin B 0.75 µg/mL)	bacterial growth OD600 (polymyxin B 1 µg/mL)
O=S(=O)(Cc1ccccc1)NCC1CCCN(C2CSCCSC2)C1 (centres undefined)	0.946	
CCS(=O)(=O)c1ncc(CN2CCN(c3cnccn3)CC2)n1Cc1ccccc1		0.856
Fc1ccccc1Oc1ncccc1CNCc1nc2ccccc2[nH]1	0.775	
COc1cccc(CC(C2CCN(C(=O)c3cc(C(C)C)on3)CC2)N(C)C(=O)c2ccn(C)n2)c1 (centres undefined)	0.798	
COc1ccc(-c2noc(-c3ccc(N(C)CC4CCCN4C)nc3)n2)cc1 (centres undefined)	0.005	
CSc1ncc(CN2CCCC(CNC(=O)c3ccc(F)cc3)C2)cn1 (centres undefined)		0.782
CCCn1ncc(CN2CCc3[nH]nc(-c4ccc5c(c4)OCO5)c3C2)c1C	0.857	
COc1cccc(CCC2CCCN(C(=O)CCN3CCCO3)C2)c1 (centres undefined)	0.796	
COC(=O)[C@@H](NC(=O)c1cc(CCc2ccccc2)no1)c1ccccc1	0.018	

2 successive compounds already listed, for reference:
Compound	bacterial growth OD600 (polymyxin B 0.75 µg/mL)	bacterial growth OD600 (polymyxin B 1 µg/mL)
CCCn1ncc(CN2CCc3[nH]nc(-c4ccc5c(c4)OCO5)c3C2)c1C	0.857	
COc1cccc(CCC2CCCN(C(=O)CCN3CCCO3)C2)c1 (centres undefined)	0.796	
